Assay results from paper PMC6488594.
Results are given in words; binding and its absence hold for the method and conditions named. Binding seen in cells or lysates may run through a third protein. Some binding calls cover weakened binding; strength is not graded here. Tags and fused reporters may be left off the sequences shown.

Amino acid sequences for entries named in this document (tags omitted).
UniProt P59242: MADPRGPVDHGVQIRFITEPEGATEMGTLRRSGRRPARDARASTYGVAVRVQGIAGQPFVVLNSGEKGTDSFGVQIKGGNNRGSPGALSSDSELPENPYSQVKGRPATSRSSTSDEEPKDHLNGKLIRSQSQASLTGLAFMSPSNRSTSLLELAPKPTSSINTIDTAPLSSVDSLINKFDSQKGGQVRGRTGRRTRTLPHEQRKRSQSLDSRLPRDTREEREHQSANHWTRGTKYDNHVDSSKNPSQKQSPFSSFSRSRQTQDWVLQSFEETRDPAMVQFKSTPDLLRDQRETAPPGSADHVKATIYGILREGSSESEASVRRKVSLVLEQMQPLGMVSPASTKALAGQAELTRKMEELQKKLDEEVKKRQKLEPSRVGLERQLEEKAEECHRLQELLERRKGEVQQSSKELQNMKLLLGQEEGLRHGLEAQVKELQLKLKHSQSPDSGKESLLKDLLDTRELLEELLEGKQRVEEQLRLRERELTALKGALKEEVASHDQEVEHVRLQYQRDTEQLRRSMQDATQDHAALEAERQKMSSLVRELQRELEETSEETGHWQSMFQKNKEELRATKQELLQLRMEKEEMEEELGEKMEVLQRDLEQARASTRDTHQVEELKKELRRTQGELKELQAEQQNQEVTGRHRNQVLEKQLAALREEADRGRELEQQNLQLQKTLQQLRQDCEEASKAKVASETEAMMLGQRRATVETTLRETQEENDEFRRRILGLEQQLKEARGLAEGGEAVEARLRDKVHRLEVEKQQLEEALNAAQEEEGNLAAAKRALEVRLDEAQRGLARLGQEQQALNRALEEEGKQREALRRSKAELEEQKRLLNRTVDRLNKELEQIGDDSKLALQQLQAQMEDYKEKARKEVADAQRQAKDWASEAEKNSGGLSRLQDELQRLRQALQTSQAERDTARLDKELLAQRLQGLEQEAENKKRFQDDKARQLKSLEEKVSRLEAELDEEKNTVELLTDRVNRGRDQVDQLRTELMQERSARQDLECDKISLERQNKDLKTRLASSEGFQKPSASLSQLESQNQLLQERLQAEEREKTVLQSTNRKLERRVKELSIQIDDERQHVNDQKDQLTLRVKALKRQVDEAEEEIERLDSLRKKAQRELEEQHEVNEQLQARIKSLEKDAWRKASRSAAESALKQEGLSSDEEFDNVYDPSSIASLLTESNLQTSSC
UniProt Q60598: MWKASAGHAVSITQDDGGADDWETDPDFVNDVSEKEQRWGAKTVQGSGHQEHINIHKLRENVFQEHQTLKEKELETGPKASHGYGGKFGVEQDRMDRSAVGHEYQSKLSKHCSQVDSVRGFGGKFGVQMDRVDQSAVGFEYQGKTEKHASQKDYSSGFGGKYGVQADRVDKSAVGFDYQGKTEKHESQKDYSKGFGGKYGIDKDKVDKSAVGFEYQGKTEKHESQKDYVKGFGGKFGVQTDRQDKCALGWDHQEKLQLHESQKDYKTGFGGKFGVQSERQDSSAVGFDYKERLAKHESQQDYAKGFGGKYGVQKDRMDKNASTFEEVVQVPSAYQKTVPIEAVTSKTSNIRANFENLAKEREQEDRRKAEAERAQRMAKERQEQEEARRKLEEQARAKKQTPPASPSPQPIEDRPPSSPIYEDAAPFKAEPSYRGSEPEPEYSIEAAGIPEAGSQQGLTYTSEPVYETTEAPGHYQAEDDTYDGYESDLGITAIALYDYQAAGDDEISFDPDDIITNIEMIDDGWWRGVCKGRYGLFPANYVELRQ
UniProt P35579: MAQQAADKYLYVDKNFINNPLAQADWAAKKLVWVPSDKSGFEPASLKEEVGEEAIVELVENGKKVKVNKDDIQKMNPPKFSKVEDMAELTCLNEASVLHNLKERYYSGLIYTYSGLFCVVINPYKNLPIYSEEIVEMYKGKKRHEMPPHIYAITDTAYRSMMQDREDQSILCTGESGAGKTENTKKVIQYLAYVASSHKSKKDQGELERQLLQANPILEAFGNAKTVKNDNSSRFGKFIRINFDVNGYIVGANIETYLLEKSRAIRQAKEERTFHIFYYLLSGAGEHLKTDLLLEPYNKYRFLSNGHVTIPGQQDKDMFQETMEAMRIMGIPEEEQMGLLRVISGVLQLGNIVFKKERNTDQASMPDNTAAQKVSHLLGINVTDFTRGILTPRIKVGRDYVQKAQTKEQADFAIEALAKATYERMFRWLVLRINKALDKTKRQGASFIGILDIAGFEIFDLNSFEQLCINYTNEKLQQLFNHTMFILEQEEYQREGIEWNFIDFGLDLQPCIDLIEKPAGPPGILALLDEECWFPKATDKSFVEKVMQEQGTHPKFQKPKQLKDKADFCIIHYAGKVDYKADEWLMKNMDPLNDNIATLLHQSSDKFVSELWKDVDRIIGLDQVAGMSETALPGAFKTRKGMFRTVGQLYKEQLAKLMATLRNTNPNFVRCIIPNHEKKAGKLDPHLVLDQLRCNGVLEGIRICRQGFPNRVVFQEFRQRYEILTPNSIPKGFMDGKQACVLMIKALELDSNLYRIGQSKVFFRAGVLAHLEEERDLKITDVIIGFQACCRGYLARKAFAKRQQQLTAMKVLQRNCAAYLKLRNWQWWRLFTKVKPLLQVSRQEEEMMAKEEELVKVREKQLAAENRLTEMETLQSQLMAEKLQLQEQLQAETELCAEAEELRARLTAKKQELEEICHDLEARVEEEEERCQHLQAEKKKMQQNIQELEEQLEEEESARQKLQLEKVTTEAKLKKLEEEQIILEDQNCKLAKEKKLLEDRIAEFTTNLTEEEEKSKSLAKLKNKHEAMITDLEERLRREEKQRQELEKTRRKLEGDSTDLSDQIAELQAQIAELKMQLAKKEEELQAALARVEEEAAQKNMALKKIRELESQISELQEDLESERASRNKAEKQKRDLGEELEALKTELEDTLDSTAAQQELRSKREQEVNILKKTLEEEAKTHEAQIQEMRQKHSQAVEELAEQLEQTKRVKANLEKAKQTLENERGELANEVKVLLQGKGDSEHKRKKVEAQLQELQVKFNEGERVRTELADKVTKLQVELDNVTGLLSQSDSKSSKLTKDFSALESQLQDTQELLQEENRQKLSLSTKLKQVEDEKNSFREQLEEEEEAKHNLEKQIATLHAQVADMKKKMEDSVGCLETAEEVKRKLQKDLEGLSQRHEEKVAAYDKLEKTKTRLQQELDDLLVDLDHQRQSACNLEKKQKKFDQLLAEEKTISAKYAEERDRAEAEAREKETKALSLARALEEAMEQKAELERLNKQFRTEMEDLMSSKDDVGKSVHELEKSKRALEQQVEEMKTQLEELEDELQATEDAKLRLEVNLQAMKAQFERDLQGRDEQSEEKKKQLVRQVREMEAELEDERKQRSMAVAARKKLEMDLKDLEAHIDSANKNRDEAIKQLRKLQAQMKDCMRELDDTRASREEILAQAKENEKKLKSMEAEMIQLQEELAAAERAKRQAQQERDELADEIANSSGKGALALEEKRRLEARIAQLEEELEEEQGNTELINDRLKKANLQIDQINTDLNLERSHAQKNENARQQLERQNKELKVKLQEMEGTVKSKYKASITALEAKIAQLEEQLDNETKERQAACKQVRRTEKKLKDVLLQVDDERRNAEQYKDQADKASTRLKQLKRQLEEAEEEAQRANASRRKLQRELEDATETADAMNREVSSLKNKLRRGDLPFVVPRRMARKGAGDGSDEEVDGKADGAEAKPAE

T1: EPRp-FLAG (small EPR-encoded peptide, FLAG-tagged) (mouse) (UniProt Q3V2G4)
T1 sequence: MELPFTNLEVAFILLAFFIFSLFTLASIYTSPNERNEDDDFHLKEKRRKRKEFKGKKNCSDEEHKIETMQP

B1: CGNL1 (Paracingulin) (protein, UniProt Q6AW69 1-1297)
chain: MELYFGEYQHVQQEYGVHLRLASGDTPKPRNSQPSKAGSYGVSIRVQGIDGHPYIVLNNTERCLAGTPFPENAPSFPSSVINNLSLHPSNGTVLKENTPEELQLPENPYLQTSPLRGQKQFSLHEGRNGVLERKDGPTKLPHVLNFQRHPELLQPYDPEKNEVNAKKHHPPESPWLRNATEDGTNCKKSRNCFPKSYGSQPNSPTSEDLAKTNMTAIRLCSSVVIEDPQKQTSVCVNVQRCAKEGVGEETLSPRRKSPTAPSPQAYSETKKNRPDVLPFRRQDSAGPILDGARSRRSSSSSTTPTSATSLYKFLLDDQECAIHADSVNRHENRRYIPFLPGTGRDIDTCSIPGVDQLIEKFDQKPGLQRRGRSGKRNRINPDDRKRSRSVDSAFPFGLQGNTEYLTEFSRNLGKSSEHLLRPSQVFPQRSVAQEHRGKHSPSSPPAKLQGAQGAHPKPPLQNKDGKVLNKGRQESTGACAPSLPAPNKKEEEIKIATATLMLQNRAVAATSDSGAKKISVKTFPSDSSTQATPDLLKGQQELTQQTNEETAKQILYNYLKEGGTDNEDATKRKVNLVFEKIQTLKSRAAGSAQGSNQAPNSPSEGNSLLDQKNKLILEVSELQQQLQLEMKNQQNIKEERERMREDLEELRVRHQSQVEETATLQRRLEESEGELRKSLEELFQVKMEREQHQTEIRDLQDQLSEMHDELDSTKRSEDREKGALIEELLQAKQDLQDLLIAKEEQEDLLRKRERELTALKGALKEEVSSHDQEMDKLKEQYDAELQALRESVEEATKNVEVLASRSNSSEQSQAEADLREKVLKEENEKLQGRIAELERRAAQLQRQMEDVKGDEAQAKETLRKCESEVQQLEEALVHARKEEKEATCARRALEKELEQARRELSQVSQEQKELLEKLRDEAEQKEQLRKLKNEMESERWHLDKTIEKLQKEMADIAEASRTSSLELQKQLGEYKEKNRRELAEMQTQLKEKCLEVEKARLAASKMQDELRLKEEELQDYQRAEEEALTKRQLLEQSLKDLEYELEAKSHLKDDRSRLIKQMEDKVSQLEIELEEERTNADLLSERITWSREQMEQMRSELLQEKAAKQDLECDKISLERQNKDLKSRIIHLEGSYRSSKEGLVVQMEARIAELEDRLENEERDRANLQLSNRRLERKVKELVMQVDDEHLSLTDQKDQLSLRLKAMKRQVEEAEEEIDRLESSKKKLQRELEEQMGVNEQLQGQLNSLKKGLRLKTLSSKVLDDSDDDDLSSDAGSLYEAPLSYAFPKDSTIASQI

Biological target: T1, EPRp-FLAG (small EPR-encoded peptide, FLAG-tagged) (mouse)
Test: co-IP; coimmunoprecipitation of FLAG-tagged EPRp and junctional proteins in total extracts from NMuMG cells stably transfected with EPRp-FLAG; immunoblots with the indicated antibodies

| binding | Molecule |
| --- | --- |
| binds | CGN (Cingulin) (from UniProt P59242 1-1191) |
| binds | CTTN (Cortactin) (from UniProt Q60598 1-546) |
| binds | MYH9 (epithelial myosin-II) (from UniProt P35579 1-1960) |
| binds | B1 |
